The record followed here is patent US4952607A, “Copper complex for treating cancer” (priority 1986, dated 1990).

This series concerns Sarcoma 180 cells. The experiment in a line: Tumor growth and survival of CF1 mice implanted with Sarcoma 180 cells. The class given is in vivo. The procedure: Autopsies are performed on all dead animals.

For “Orgotein: generic name for CuZnSOD derived from bovine liver”, the “fibroblast response around tumor” value (5th day after inoculation of tumor cells) was “development of a prominent fibroblast response in the area surrounding the tumor in some, but not all, of these animals”. Besides, the “tumor histology vs untreated cells” value (tumors developed from treated cells) was “no difference histologically”.
